Test results reported in patent US20160281145.
Construct, isoform or probe ends are uncertain for at least one entry. For some assays here: A negative result means that nothing was seen under these conditions.

Protein sequences, listed by entry. Tags and fused reporters are not part of them. Residues count along the entry.
UniProt P02769, 25-607: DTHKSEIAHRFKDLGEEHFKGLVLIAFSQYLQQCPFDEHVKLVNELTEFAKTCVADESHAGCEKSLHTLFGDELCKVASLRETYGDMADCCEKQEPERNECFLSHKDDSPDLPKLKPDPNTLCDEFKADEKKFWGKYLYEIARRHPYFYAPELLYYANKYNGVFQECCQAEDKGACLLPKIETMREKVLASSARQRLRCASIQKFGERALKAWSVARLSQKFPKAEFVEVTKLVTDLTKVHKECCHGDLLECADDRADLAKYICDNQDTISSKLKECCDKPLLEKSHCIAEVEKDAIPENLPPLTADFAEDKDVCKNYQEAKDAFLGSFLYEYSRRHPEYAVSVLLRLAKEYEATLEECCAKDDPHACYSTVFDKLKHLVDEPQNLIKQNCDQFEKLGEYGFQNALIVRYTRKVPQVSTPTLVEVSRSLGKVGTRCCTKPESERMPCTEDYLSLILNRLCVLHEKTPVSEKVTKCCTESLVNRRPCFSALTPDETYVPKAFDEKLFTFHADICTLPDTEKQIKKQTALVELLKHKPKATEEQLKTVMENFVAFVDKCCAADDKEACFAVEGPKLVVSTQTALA
UniProt P01133, 971-1023: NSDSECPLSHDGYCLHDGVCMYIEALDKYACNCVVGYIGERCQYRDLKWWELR
UniProt P05019, 49-118: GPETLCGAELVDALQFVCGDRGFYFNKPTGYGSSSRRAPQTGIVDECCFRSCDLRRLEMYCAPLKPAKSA
UniProt P01127, 82-190: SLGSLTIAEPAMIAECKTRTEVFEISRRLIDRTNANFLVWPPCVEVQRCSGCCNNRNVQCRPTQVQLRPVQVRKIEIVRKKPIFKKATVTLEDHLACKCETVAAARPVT

Columns and labels:
Assay in all cases: binding assay
[1] = molecular target: BSA (bovine serum albumin) (Bos taurus) (UniProt P02769); details: 100 nM BSA, no measurable signal change; PDGF assay buffer, 25 C; purified native protein; single-stranded DNA
[2] = molecular target: EGF (epidermal growth factor) (UniProt P01133); details: 100 nM EGF, no measurable signal change; PDGF assay buffer, 25 C; purified recombinant protein; protein details: R&D Systems; single-stranded DNA
[3] = molecular target: IGF-I (insulin-like growth factor I) (UniProt P05019); details: 100 nM IGF-I, no measurable signal change; PDGF assay buffer, 25 C; purified recombinant protein; protein details: R&D Systems; single-stranded DNA
[4] = molecular target: PDGF-BB (platelet-derived growth factor BB) (Homo sapiens) (UniProt P01127); details: structure-switching fluorescence, purified recombinant protein, protein details: R&D Systems, single-stranded DNA

“TGAGTCGCTGCAGGTAGTCGAAAGGGCAGGCTACGGCACGTAGAGCATCACCATGATCCTG”: no binding [1]; no binding [2]; no binding [3]. “TGAGTCGCTGCAGGTAGTCGAAAGGGCAGGCTACGGCACGTAGAGCATCACCATGATCCTG”: binds ([4]; 0-300 nM PDGF-BB concentration-dependent, lifetime 2.9 to 3.6 ns with 100 nM target, 20 mM Tris-HCl, 140 mM NaCl, 5 mM KCl, 1 mM CaCl2); binds ([4]; 0-300 nM PDGF-BB, similar concentration response but lower signal enhancement than concatemer).
